Laboratory results reported in article PMC3107199.

By UniProt entry, the sequences of proteins in these tests, tags left out. Where a name states a change or a piece, a line headed by the entry shows the natural chain unless it says otherwise.
UniProt Q95RR6: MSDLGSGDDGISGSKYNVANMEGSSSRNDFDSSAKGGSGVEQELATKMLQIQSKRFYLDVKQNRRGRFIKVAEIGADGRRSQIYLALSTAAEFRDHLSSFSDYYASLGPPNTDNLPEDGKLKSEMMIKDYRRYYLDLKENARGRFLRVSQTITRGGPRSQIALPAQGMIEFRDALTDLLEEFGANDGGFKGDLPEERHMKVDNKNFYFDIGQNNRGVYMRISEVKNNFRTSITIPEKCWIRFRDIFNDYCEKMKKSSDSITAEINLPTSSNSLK
UniProt P19109: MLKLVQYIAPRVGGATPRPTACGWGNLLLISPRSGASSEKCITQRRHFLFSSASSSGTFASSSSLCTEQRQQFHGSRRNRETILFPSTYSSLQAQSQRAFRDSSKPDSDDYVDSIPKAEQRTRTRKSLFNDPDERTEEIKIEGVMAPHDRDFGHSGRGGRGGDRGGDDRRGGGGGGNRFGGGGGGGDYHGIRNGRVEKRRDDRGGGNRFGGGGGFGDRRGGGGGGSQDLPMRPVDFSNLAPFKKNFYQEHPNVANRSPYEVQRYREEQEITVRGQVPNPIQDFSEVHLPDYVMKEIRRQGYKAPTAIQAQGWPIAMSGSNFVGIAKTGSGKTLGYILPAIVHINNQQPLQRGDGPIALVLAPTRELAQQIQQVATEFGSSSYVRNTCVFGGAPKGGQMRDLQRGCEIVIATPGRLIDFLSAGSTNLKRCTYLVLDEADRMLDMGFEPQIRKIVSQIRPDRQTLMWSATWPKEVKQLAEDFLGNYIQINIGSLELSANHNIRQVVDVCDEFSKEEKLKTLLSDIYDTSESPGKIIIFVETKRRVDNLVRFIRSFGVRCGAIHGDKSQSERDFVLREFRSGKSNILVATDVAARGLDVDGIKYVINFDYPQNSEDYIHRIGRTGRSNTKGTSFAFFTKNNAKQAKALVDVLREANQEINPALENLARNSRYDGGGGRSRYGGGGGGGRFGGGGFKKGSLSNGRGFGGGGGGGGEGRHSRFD

Assays:
[1] = target: GST-Pur α fusion protein (Drosophila melanogaster) (UniProt Q95RR6); experiment: pull-down; purified recombinant GST-Pur α or GST incubated overnight with S2 cell extract; Western blot for Rm62 and Hts; samples treated or untreated with RNase; only the target purified
[2] = target: GST-Pur α fusion protein (Drosophila melanogaster) (UniProt Q95RR6); experiment: pull-down; [35S]methionine-labelled in vitro-translated proteins mixed with purified GST-Pur α or GST alone; 150 mM NaCl; samples treated or untreated with RNase; only the target purified

Molecule | binding [1] | binding [2]
endogenous Rm62 (from UniProt P19109 1-719) | binds | 
in vitro-translated Rm62 (from UniProt P19109 1-719) |  | binds
in vitro-translated Hts (protein, UniProt Q02645 1-1156, [35S] methionine label) MTEVEQPPQNGIDPTAGEDDDNSKARPADIEQDMREMERRKRVEAIMGSKLFREELERIVDSARDGGAGASGILQQLSDIVGVPVSRVGSVFKSSNCMVPINDIRGVESMGYAKGEKILRCKLAATFRLLDLYGWTQGLGAQITARLKVDQEYFLVNPYGLLYHEITASALNKVDMQGQIVEQGTTNFGGNKSHFVLHSVVHAARPDIRCAIYIGCSPVVAISSLKTGLLPLTKDACVLGEITTHAYTGLFDEEERNRLVRSLGPNSKVILLTNHGALCCGETIEEAFFAACHIVQACETQLKLLPVGLDNLVLIPEESRKAIYEQSRRPPEDLEKKFAAVAAAEDGAATAEKDAAEAVPKVGSPPKWRVGGAEFEALMRMLDNAGYRTGYIYRHPLIKSDPPKPKNDVELPPAVSSLGYLLEEEELFRQGIWKKGDIRKGGDRSRWLNSPNVYQKVEVLETGTPDPKKITKWVAEGSPTHSTPVRIEDPLQFVPAGTNPREFKRVQQLIKDNRRADKISAGPQSHILEGVTWDEASRLKDATVSQAGDHVVMMGAASKGIIQRGFQHNATVYKAPYAKNPFDNVTDDELNEYKRTVERKKKSVHGEYTDTDFSESEAVLQAGTKKYPQSEPETEHQVIEIQTQQAPVPRQAEVVLSDALVSQLAQKYAFLYSPGQYMYACMKMAPLMHKVYVIHKVEPVSKHNYPPVNDGNMSIHHNESGAGFMAQESSVISSTPVRNALASVSLPEERNHSILGLSSTPYRTISHFGFNCPLITSPTILLHPEHRSIWQRVAEQREKVVSFIDLTTLSLDNRKLLNVVTSTHPTQCQSQSQSFISEKHIQLEVTPPKRKQRVYSATISSGLDDSLDELDSLMSGLAINMPRSREQDSGLYRSYTFLPSNHALPKDTDANNRDQTDRERPEAEQEESFHCAGDSGIGDSTGRRPRLATTSNDSSIQEAEAYTQGKHVKLTLSSSPTPTATQSPATIEILINVSLRNAECVQTVQTHEQEFRAKLERVIDEEIHYISQQLAFKQRQAELHEQQTTSRAPIATPSFTTMHPPAPASSSSMVHRSNSAPELCHTYSYVAVGDLSTKQDQASPQLPAEGEPLNDILSSLEKELERLLNSVVTAHMLHNKAIIHECRARFSQLADGIVSS |  | binds
endogenous Hts (protein, UniProt Q02645 1-1156) MTEVEQPPQNGIDPTAGEDDDNSKARPADIEQDMREMERRKRVEAIMGSKLFREELERIVDSARDGGAGASGILQQLSDIVGVPVSRVGSVFKSSNCMVPINDIRGVESMGYAKGEKILRCKLAATFRLLDLYGWTQGLGAQITARLKVDQEYFLVNPYGLLYHEITASALNKVDMQGQIVEQGTTNFGGNKSHFVLHSVVHAARPDIRCAIYIGCSPVVAISSLKTGLLPLTKDACVLGEITTHAYTGLFDEEERNRLVRSLGPNSKVILLTNHGALCCGETIEEAFFAACHIVQACETQLKLLPVGLDNLVLIPEESRKAIYEQSRRPPEDLEKKFAAVAAAEDGAATAEKDAAEAVPKVGSPPKWRVGGAEFEALMRMLDNAGYRTGYIYRHPLIKSDPPKPKNDVELPPAVSSLGYLLEEEELFRQGIWKKGDIRKGGDRSRWLNSPNVYQKVEVLETGTPDPKKITKWVAEGSPTHSTPVRIEDPLQFVPAGTNPREFKRVQQLIKDNRRADKISAGPQSHILEGVTWDEASRLKDATVSQAGDHVVMMGAASKGIIQRGFQHNATVYKAPYAKNPFDNVTDDELNEYKRTVERKKKSVHGEYTDTDFSESEAVLQAGTKKYPQSEPETEHQVIEIQTQQAPVPRQAEVVLSDALVSQLAQKYAFLYSPGQYMYACMKMAPLMHKVYVIHKVEPVSKHNYPPVNDGNMSIHHNESGAGFMAQESSVISSTPVRNALASVSLPEERNHSILGLSSTPYRTISHFGFNCPLITSPTILLHPEHRSIWQRVAEQREKVVSFIDLTTLSLDNRKLLNVVTSTHPTQCQSQSQSFISEKHIQLEVTPPKRKQRVYSATISSGLDDSLDELDSLMSGLAINMPRSREQDSGLYRSYTFLPSNHALPKDTDANNRDQTDRERPEAEQEESFHCAGDSGIGDSTGRRPRLATTSNDSSIQEAEAYTQGKHVKLTLSSSPTPTATQSPATIEILINVSLRNAECVQTVQTHEQEFRAKLERVIDEEIHYISQQLAFKQRQAELHEQQTTSRAPIATPSFTTMHPPAPASSSSMVHRSNSAPELCHTYSYVAVGDLSTKQDQASPQLPAEGEPLNDILSSLEKELERLLNSVVTAHMLHNKAIIHECRARFSQLADGIVSS | binds | 

No constants are given. Whether binding was seen depends on the method and setting. Binding seen in cells or lysates may run through a third protein. A result given as binding can be weak or reduced; the word gives no strength.
